Results deposited as PubChem BioAssay AID652243 (Drosophila RNAi Screening Center, 2013).
In all, the deposit lists about 24,000 reagents; below is a random part of those with a known target gene and a result. Of all reagents, 246 (1%) are marked active. 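Plates not normalised; calls are printed but the firefly/Renilla ratio behind them is not deposited; fold cut for lowering reported inconsistently.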 Raw values vary from plate to plate and are shown uncorrected. The record does not give: the amount of reagent.

- Aim: 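Fly regulators of androgen-dependent reporter output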 (primary screen)
- Cells: Drosophila S2R+ cells
- Reagent: long dsRNA against Drosophila genes
- Duration: 72 h (48 h, then 24 h hormone)
- Conditions: synthetic androgen R1881 at 10 nM for 24 h
- Measured: 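Per-well raw luminescence of the androgen-driven firefly reporter and of the Renilla control, two replicates each, without normalisation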
- Direction: firefly reporter light: higher = more light from androgen-responsive reporter; Renilla control light: higher = more constitutive control signal (cell number, transfection)
- Rule for the call: 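Hit when the log firefly-to-Renilla ratio dropped or increased by a fixed fold versus the mean of GFP or LacZ controls across duplicate plates; lowering cut given as 1.5 and as 3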
- Calls: active = hit: reporter lowered or raised; inactive = no hit

CG12848 [DRSC04128]
- firefly reporter light, replicate 1: 4.06e5
- firefly reporter light, replicate 2: 4.40e5
- Renilla control light, replicate 1: 2.07e6
- Renilla control light, replicate 2: 1.92e6
- outcome: inactive

CG13653 [DRSC14653]
- firefly reporter light, replicate 1: 1.13e5
- firefly reporter light, replicate 2: 1.31e5
- Renilla control light, replicate 1: 1.85e6
- Renilla control light, replicate 2: 1.79e6
- outcome: inactive

CG10508 [DRSC11612]
- firefly reporter light, replicate 1: 84449
- firefly reporter light, replicate 2: 1.14e5
- Renilla control light, replicate 1: 5.06e5
- Renilla control light, replicate 2: 5.71e5
- outcome: inactive

CG10508 [DRSC11613]
- firefly reporter light, replicate 1: 3.28e5
- firefly reporter light, replicate 2: 3.63e5
- Renilla control light, replicate 1: 3.22e6
- Renilla control light, replicate 2: 3.19e6
- outcome: inactive

vkg (viking) [DRSC03632]
- firefly reporter light, replicate 1: 1.71e5
- firefly reporter light, replicate 2: 1.16e5
- Renilla control light, replicate 1: 1.80e6
- Renilla control light, replicate 2: 9.66e5
- outcome: inactive

Cep97 (Centrosomal protein 97kDa) [DRSC00637]
- firefly reporter light, replicate 1: 7.93e5
- firefly reporter light, replicate 2: 1.08e6
- Renilla control light, replicate 1: 7.98e5
- Renilla control light, replicate 2: 1.02e6
- outcome: inactive

Cep97 (Centrosomal protein 97kDa) [DRSC36834]
- outcome: inactive

Cep97 (Centrosomal protein 97kDa) [DRSC36835]
- outcome: inactive

Looked up above.
CG10508 [DRSC11612], firefly reporter light, replicate 1: 84449
Under “Renilla control light, replicate 1”, CG12848 [DRSC04128] is entered as 2.07e6

Further entries follow:
CG13023 [DRSC09903]
- firefly reporter light, replicate 1: 3.02e5
- firefly reporter light, replicate 2: 1.63e5
- Renilla control light, replicate 1: 2.99e6
- Renilla control light, replicate 2: 2.93e6
- outcome: inactive

CG46301 [DRSC01916]
- firefly reporter light, replicate 1: 8.40e5
- firefly reporter light, replicate 2: 9.45e5
- Renilla control light, replicate 1: 1.47e6
- Renilla control light, replicate 2: 1.65e6
- outcome: inactive

CG46301 [DRSC25566]
- firefly reporter light, replicate 1: 8.59e5
- firefly reporter light, replicate 2: 6.98e5
- Renilla control light, replicate 1: 8.94e5
- Renilla control light, replicate 2: 8.20e5
- outcome: inactive

CG9921 [DRSC20220]
- firefly reporter light, replicate 1: 6.19e5
- firefly reporter light, replicate 2: 5.52e5
- Renilla control light, replicate 1: 3.05e6
- Renilla control light, replicate 2: 4.22e6
- outcome: inactive
